Experimental data reported in article PMC9498672.
No constants are given. Whether binding was seen depends on the method and setting. In cells and extracts the contact can be indirect. Some binding calls cover weakened binding; strength is not graded here. Sequences can lack the tags named with a protein. Values belong to the molecule of their own block, whether it stands above or below them.

The chains behind the UniProt entries cited, without tags or fusion partners.
UniProt P31751: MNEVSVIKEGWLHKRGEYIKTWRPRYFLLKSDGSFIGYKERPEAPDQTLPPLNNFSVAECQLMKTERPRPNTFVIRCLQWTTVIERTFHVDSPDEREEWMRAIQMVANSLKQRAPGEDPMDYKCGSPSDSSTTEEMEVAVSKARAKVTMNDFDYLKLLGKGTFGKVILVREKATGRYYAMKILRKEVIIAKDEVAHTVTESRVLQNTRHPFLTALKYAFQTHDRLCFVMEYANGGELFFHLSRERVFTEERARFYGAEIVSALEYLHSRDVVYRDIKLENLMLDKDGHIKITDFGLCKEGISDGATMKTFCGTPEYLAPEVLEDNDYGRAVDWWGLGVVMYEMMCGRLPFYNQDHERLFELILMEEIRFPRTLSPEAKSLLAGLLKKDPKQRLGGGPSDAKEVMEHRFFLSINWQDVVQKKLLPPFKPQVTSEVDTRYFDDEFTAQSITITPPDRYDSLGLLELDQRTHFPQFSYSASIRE
UniProt Q96SB4: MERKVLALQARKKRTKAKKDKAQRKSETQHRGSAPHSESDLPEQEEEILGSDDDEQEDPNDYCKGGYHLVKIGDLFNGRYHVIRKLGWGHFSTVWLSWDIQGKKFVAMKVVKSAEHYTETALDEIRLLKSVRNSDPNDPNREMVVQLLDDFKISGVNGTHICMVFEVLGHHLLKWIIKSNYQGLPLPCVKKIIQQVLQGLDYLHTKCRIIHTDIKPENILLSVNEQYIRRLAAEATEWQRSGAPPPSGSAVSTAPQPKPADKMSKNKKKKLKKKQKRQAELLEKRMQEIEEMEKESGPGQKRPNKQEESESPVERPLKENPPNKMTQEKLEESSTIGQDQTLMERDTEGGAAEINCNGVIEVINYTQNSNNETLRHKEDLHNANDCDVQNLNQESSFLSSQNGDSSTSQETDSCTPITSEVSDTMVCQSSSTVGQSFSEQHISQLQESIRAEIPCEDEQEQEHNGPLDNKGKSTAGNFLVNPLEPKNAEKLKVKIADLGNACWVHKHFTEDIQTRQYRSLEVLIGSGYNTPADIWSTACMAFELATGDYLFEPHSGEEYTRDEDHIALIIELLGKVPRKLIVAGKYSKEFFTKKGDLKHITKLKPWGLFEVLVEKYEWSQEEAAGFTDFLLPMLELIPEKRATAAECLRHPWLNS
UniProt P49759: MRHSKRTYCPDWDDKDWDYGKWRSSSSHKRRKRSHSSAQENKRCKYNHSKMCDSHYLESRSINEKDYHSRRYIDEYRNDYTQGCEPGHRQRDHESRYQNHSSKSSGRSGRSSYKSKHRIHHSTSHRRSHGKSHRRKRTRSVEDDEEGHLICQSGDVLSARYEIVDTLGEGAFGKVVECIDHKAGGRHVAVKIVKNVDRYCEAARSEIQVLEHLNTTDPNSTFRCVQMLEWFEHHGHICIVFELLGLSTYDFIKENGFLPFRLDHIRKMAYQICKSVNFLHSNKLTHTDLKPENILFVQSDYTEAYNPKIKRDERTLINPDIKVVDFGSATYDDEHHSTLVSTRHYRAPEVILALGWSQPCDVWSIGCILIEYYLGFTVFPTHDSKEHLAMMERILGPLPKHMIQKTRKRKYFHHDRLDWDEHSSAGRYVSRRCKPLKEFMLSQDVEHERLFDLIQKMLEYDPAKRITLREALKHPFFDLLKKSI

Tests used:
[1] = target: T1, RNA binding motif 20 (RBM20), wild type, 8xHis-tagged (UniProt E9PT37); assay: co-IP; HeLa cells co-transfected with 8xHis-RBM20 and one kinase construct, lysates 48 h later; anti-His-tag antibody coupled to resin (Pierce Co-IP kit) captured RBM20; blots with anti-RBM20, anti-SRPK1, anti-CLK1 and anti-HA-tag antibodies; control resin without antibody
T1 sequence: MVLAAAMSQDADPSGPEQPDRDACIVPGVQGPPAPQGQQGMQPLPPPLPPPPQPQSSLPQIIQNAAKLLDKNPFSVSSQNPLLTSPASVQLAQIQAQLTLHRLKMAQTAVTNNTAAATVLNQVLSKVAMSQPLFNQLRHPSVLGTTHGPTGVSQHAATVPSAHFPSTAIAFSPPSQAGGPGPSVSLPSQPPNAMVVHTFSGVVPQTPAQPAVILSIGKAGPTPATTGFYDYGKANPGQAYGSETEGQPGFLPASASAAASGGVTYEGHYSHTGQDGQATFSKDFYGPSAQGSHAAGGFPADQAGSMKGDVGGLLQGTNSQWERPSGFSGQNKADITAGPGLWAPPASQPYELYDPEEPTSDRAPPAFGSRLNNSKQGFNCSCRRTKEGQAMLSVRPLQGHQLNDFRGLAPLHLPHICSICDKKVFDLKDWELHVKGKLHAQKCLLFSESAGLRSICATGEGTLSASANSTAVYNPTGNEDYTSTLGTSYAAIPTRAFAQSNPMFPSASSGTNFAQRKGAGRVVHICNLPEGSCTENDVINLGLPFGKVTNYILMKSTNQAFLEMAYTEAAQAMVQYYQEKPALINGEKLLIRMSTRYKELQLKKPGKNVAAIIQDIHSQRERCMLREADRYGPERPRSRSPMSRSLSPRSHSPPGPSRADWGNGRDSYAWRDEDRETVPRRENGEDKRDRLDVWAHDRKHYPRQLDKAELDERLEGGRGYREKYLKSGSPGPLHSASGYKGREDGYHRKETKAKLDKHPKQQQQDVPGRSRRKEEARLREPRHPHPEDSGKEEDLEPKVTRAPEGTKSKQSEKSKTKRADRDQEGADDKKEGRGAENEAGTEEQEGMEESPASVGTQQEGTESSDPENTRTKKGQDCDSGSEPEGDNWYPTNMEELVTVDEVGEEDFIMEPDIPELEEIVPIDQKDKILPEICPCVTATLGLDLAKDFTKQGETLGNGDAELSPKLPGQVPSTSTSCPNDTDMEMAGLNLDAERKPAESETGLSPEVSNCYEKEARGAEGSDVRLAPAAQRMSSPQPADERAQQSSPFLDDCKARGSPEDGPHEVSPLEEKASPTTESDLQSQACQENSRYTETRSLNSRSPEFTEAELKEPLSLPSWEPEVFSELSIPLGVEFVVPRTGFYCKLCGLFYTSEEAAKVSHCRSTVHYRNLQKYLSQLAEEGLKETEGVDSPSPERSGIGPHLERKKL

[2] = target: HA-tagged AKT2 (pcDNA3-Myr-HA-Akt2) (UniProt P31751); assay: co-IP; reciprocal: HeLa cells co-transfected with 8xHis-RBM20 and one kinase construct; SRPK1, CLK1 or HA-tagged AKT2 used as bait (antibody-coupled resin, Pierce Co-IP kit), RBM20 detected by blot; control resin without antibody
[3] = target: SR protein-specific kinase 1 (SRPK1) (UniProt Q96SB4); assay: as above
[4] = target: cdc2-like kinase 1 (CLK1) (UniProt P49759); assay: as above

Molecule: SR protein-specific kinase 1 (SRPK1) (from UniProt Q96SB4 1-655) (enzyme)
binding [1]: binds

B1: RNA binding motif 20 (RBM20), wild type, 8xHis-tagged (protein, UniProt E9PT37 1-1207)
chain: T1 sequence
binding [2]: binds | binding [3]: binds | binding [4]: binds

Further lines, results first:

binding [1]: binds
Molecule: HA-tagged AKT2 (pcDNA3-Myr-HA-Akt2) (from UniProt P31751 1-481) (enzyme)

binding [1]: binds
Molecule: cdc2-like kinase 1 (CLK1) (from UniProt P49759 1-484) (enzyme)
